The target of experiment [1] is AAV-FLAG-FUS-R521C (UniProt P35637). Briefly: co-IP; lysates of cultured mouse cortical neurons infected with AAV-FLAG-FUS for 4-6 days; anti-FLAG IP, western blot with anti-PRMT1. (In general: In western blotting, separated proteins are transferred to a membrane and probed.)
The target in experiment [2] is AAV-FLAG-FUS-WT (UniProt P35637). Described as above.

The chains behind the UniProt entries cited, without tags or fusion partners. Where a name states a change or a piece, a line headed by the entry shows the natural chain unless it says otherwise.
UniProt P35637: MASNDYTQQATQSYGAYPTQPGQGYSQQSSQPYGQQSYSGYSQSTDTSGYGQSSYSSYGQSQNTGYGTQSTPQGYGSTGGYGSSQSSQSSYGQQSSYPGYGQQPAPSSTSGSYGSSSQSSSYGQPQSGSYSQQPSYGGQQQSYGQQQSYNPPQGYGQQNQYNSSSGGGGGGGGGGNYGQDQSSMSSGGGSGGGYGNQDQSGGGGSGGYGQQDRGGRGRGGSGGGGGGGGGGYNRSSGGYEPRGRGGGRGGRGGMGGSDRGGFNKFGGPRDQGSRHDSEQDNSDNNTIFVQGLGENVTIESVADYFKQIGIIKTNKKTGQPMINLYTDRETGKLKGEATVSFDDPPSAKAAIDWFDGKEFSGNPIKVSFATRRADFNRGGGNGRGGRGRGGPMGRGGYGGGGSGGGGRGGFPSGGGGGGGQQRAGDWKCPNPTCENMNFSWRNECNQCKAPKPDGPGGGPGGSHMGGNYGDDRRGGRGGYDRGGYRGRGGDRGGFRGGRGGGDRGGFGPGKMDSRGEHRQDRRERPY
UniProt Q9JIF0: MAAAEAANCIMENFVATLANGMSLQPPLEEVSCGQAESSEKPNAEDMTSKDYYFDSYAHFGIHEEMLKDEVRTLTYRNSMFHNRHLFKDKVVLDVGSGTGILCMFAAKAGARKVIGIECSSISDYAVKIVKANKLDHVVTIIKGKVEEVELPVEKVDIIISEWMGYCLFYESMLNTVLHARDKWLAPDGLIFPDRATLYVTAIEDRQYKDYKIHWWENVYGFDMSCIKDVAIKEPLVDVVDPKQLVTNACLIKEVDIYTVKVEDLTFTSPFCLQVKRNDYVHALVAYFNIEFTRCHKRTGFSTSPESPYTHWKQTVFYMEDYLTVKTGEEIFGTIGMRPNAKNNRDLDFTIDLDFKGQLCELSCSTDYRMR

Results are given in words; binding and its absence hold for the method and conditions named. In cells and extracts the contact can be indirect. Some results given as binding are weak or reduced against the parent protein; the word gives no strength.

As to “endogenous PRMT1 of cultured mouse cortical neurons (from UniProt Q9JIF0 1-371)”, the binding entry in experiment [1] and in experiment [2] was “binds” throughout.

The record behind these values is PMC5240339.
